Experimental findings from PMC4161380 are described below.

By UniProt entry, the sequences of proteins in these tests, tags left out.
UniProt Q15165: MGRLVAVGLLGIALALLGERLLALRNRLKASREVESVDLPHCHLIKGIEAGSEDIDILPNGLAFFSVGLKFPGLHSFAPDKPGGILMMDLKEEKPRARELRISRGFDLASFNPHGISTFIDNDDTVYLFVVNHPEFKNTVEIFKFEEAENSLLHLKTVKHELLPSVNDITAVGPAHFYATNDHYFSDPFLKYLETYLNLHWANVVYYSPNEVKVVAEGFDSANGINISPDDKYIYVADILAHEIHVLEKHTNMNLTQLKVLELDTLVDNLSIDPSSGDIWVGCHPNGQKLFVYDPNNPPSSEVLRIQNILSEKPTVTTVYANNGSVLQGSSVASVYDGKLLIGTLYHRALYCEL
UniProt Q99497: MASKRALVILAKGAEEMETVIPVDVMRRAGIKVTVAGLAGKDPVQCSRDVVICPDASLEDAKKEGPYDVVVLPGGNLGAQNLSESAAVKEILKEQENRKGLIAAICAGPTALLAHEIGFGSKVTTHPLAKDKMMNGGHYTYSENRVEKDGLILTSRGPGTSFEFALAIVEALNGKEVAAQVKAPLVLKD

No constants are given. Whether binding was seen depends on the method and setting. Binding seen in cells or lysates may run through a third protein. A yes stands for co-enrichment or nearness to the bait. Other partners may have been found.

The test concerns the target FLAG-tagged Paraoxonase-2 (bait of the proteomic screen) (human) (UniProt Q15165). The test is described as follows: affinity purification with mass spectrometry; FLAG-tagged bait transiently expressed in HEK293; lysate (20 mM Tris-HCl pH 7.5, 150 mM NaCl, 1 mM EDTA, 1% NP-40, 0.5% sodium deoxycholate) on anti-Flag M2-agarose, eluted with Flag peptide, SDS-PAGE bands analysed by LCQ Deca mass spectrometry and Mascot.

As to “DJ-1 (endogenous, HEK293) (from UniProt Q99497 1-189)”, the binding entry is on record as “binds”.
